This note sets out measurements from article doi:10.1101/2021.04.25.441346 (bioRxiv, 2021).

Results are given in words; binding and its absence hold for the method and conditions named. In cells and extracts the contact can be indirect. Some entries that bind do so weakly or less than the wild type. Sequences can lack the tags named with a protein.

In this test the target is T1, ARF19 BiFC fusion (nEYFP-ARF19 and cEYFP-ARF19) (Arabidopsis thaliana), Q8RYC8.
T1 chain: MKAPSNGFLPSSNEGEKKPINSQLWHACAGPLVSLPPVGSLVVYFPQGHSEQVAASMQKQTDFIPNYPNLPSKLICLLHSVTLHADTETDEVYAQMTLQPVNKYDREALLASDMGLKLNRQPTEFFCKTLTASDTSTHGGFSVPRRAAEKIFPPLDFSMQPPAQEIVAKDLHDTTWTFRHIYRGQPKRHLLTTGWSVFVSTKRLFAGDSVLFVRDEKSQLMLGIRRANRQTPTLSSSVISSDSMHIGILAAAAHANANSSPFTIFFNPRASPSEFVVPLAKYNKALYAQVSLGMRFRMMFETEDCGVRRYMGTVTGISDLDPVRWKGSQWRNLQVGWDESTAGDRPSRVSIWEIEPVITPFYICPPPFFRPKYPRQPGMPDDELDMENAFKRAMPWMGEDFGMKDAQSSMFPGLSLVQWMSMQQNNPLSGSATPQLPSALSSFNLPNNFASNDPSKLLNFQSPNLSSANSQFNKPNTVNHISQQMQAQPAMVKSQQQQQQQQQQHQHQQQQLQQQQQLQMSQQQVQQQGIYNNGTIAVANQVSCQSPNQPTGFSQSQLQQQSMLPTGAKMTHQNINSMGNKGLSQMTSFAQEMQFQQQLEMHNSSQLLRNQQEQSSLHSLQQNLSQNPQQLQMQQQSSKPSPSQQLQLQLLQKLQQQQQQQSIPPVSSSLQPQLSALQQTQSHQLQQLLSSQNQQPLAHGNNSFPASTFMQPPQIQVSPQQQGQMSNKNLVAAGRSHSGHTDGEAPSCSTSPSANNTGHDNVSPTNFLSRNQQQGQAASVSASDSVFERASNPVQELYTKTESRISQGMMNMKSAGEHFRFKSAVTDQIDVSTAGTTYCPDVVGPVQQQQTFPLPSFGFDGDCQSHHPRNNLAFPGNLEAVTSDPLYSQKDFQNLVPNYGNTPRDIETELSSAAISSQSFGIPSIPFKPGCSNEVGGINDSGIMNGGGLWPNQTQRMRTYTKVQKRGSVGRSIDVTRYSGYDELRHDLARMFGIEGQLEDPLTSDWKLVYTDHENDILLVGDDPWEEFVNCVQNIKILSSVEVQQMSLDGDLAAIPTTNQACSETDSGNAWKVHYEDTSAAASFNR
As to the kind of experiment: split reporter. As to conditions: remark: other sources report otherwise.

B1: ARF19 BiFC fusion (nEYFP-ARF19 and cEYFP-ARF19), Q8RYC8 1-1086 (protein)
chain: T1 chain
As to B1, the binding entry is reported as “binds”.
